About 770 (0.35%) of roughly 220,000 compounds were called active. Inconclusive means that the source gave no clear call. Such entries were picked first, then a sample of the others. No stated cut-off is given here; in the data, active means binding response below about 49% or above about 150%; inconclusive means no clear call, values can overlap the other calls; inactive means in between.
What follows are compounds tested against Guanine nucleotide-binding protein G(o) subunit alpha (Homo sapiens) (UniProt P09471) (assay: RGS7-Galphao binding modulators, primary screen, biochemical, multiplexed bead flow cytometry (AID 1439;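 further: fluorescent Galphao held in activated GDP-AlF4 state binding bead-coupled RGS7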)). Conditions: at 10 µM, actives lie on both sides.

Chains of the proteins cited; added tags and fusions are not shown.
UniProt P09471, whole entry, looked up: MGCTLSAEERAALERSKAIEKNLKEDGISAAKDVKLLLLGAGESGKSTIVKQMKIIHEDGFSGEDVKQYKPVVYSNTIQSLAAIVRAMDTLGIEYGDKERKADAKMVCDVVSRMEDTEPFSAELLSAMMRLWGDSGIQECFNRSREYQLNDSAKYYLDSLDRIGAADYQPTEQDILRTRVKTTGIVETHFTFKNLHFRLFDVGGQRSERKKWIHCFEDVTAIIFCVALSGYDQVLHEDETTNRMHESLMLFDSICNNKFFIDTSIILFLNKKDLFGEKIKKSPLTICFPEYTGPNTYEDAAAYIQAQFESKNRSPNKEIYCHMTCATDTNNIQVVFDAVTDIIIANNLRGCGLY

Row | SMILES | binding response (% of control)
1 | Cc1ccc(N2CCN(/N=C/C3=C(N4CCOCC4)C(=C\c4ccccc4)/CC3)CC2)cc1 | inconclusive: 80.4%
2 | O=C(Nc1ccc(CN2CCS(=O)(=O)CC2)cc1)c1ccc(Cl)cc1 | inconclusive: 54.3%
3 | CS(=O)(=O)N1CCN(c2ccc(NC(=S)NC(=O)c3ccc4c(c3)OCO4)cc2)CC1 | inconclusive: 80.5%
4 | O=C(CN1CCN(Cc2ccccc2Cl)C1=O)NCc1ccccn1 | inconclusive: 81.7%
5 | COc1cc(NC(=O)c2ccnc(N)c2)cc(C(=O)Nc2cccc(C(F)(F)F)c2)c1 | inconclusive: 126%
6 | COc1ccccc1CNC(=O)CSc1nnc2ccc(-c3cccnc3)nn12 | inconclusive: 109%
7 | CSCCNC(=O)Nc1c(-c2c(Cl)cccc2Cl)noc1C | inconclusive: 87.6%
8 | COc1ccc(CNCC(O)COc2cccc3c2OC(C)(C)C3)cc1 (centres undefined) | inconclusive: 100%
9 | Cc1cc(C)c2c(SC(C)C)nc(N)nc2n1 | inconclusive: 119%
10 | Cc1cc(O)cc2c(=O)c3ccccc3sc12 | inconclusive: 74.2%
11 | O=C(Nc1ccc(S(=O)(=O)Nc2ncccn2)cc1)c1ccc(F)c(S(=O)(=O)N2CCOCC2)c1 | inconclusive: 92.6%
12 | O=C(NC(=S)NCc1ccncc1)c1ccccc1 | inconclusive: 93.7%
13 | COc1cccc(/C=N/Nc2nnc3c(n2)[nH]c2ccccc23)c1OC | inconclusive: 110%
14 | CCN(C(=O)CSc1nc2cc(Cl)ccc2c(=O)n1Cc1ccco1)C1CCS(=O)(=O)C1 (centres undefined) | inconclusive: 109%
15 | Cn1cnc2c1c(=O)[nH]c(=O)n2C | inconclusive: 100%
16 | CCOc1ccc(CCNC(=O)c2ccc3nc(N4CCOCC4)sc3c2)cc1OCC | inconclusive: 141%
17 | CC1CCc2c(sc(NC(=O)COC(=O)c3ccccc3NCc3ccco3)c2C#N)C1 (centres undefined) | active: -1.97%
18 | COc1cccc(OC)c1C(=O)NC(=O)Nc1c(F)c(F)c(F)c(F)c1F | inconclusive: 210%
19 | O=C(Nc1cc(S(=O)(=O)N2CCOCC2)ccc1N1CCOCC1)c1cc2c(s1)CCC2 | inconclusive: 56.1%
20 | Cc1cc(C)c2nc(-c3cccnc3)cc(C(=O)NC(C)c3cnn(C)c3C)c2c1 (centres undefined) | inconclusive: 112%
21 | CC(=O)C(Cc1ccc(Cl)nc1)(Cc1ccc(Cl)nc1)C(C)=O | inconclusive: 99%
22 | Nn1c(C2CCCCC2)nc2ccccc2c1=O | inconclusive: 183%

For reference, some entries already given.
Row | SMILES | binding response (% of control)
12 | O=C(NC(=S)NCc1ccncc1)c1ccccc1 | inconclusive: 93.7%
13 | COc1cccc(/C=N/Nc2nnc3c(n2)[nH]c2ccccc23)c1OC | inconclusive: 110%
14 | CCN(C(=O)CSc1nc2cc(Cl)ccc2c(=O)n1Cc1ccco1)C1CCS(=O)(=O)C1 (centres undefined) | inconclusive: 109%

Later entries:

Row | SMILES | binding response (% of control)
23 | CC(C)Cc1cc(C(=O)Nc2ccc(Br)cc2)no1 | inconclusive: 87.2%
24 | CC(C)CNC(=O)c1ccccc1SCC(=O)NC12CC3CC(CC(C3)C1)C2 | inactive: 79.1%
25 | CC(C)=NOc1nc(N2CCOCC2)nc(N2CCOCC2)n1 | inconclusive: 178%
26 | COC(=O)c1ccc(S(=O)(=O)NCc2ccc(OC)cc2)n1C | inconclusive: 104%
27 | Cc1ccn2cc(CNS(=O)(=O)c3cccs3)nc2c1 | inconclusive: 95.1%
28 | CC(=O)Nc1cccc(/C(C)=N/NC(=O)c2cccc(S(=O)(=O)N3CCOCC3)c2)c1 | inconclusive: 99.4%
29 | Cc1cc(=O)oc2cc(Oc3ccc([N+](=O)[O-])cc3[N+](=O)[O-])ccc12 | inactive: 91.2%
30 | O=C(NS(=O)(=O)Oc1cccc(Cl)c1Cl)OC[C@@H]1CCCN2CCCCC12 (some centres undefined) | inactive: 102%
31 | Cn1cccc1/C=N/NC(=O)Cc1ccccc1 | inconclusive: 83.8%
32 | O=C(Cn1nc2sc3ccccc3n2c(=O)c1=O)c1cccs1 | inconclusive: 242%
33 | CO/N=C\c1cc(C(=O)c2ccc(Cl)cc2Cl)cn1C | inconclusive: 97.7%
34 | Oc1ccccc1N1CCN(c2ncnc3sc(-c4ccccc4)cc23)CC1 | inconclusive: 65%
35 | COc1ccccc1Nc1nc(N)nc(CSC(=S)N2CCOCC2)n1 | inconclusive: 101%
36 | Cc1ccc(/C=C/C(=O)O)cc1S(=O)(=O)NC1CCS(=O)(=O)C1 (centres undefined) | inactive: 104%
37 | O=C(NNc1ccnc2cc(Cl)ccc12)C1CCCCC1 | inconclusive: 65.4%
38 | Cc1cc(N)ccc1-n1c(C)ccc1C | inactive: 98.2%
39 | CC(c1ccon1)N(C)Cc1cn(C)nc1-c1ccc2c(c1)OCCO2 (centres undefined) | inconclusive: 86%
40 | O=C(O)c1ccc2c(=O)[nH]c(CN3CCOCC3)nc2c1 | inactive: 140%
41 | O=C(O)c1cc(-c2ccccc2)n(-c2ccc(Cl)cc2)n1 | inconclusive: 92.1%
42 | CCCCn1cnc2c(oc3nc4c(cc32)CCCC4)c1=O | inconclusive: 86%
43 | Cc1c(NC(=O)c2ccc(N(C)S(C)(=O)=O)cc2)c(=O)n(-c2ccccc2)n1C | inconclusive: 112%
44 | COc1ccc(/C=C(/Sc2nnc(-c3ccc(Cl)cc3)o2)C(=O)O)cc1 | inconclusive: 93%

Reference: PubChem BioAssay AID1439 (NMMLSC, 2008)
